Library screening results

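Whole-cell assay for inhibitors of Mycobacterium tuberculosis growth, labelled Cornell in the record; the read-out is not stated. The concentration is filed as 10 mM, unlikely as a test dose, so the dose is not known. Higher means stronger inhibition (inferred from two other growth screens of the library). Size under these conditions: about 53,000 compounds, about 900 of them at 50% or above in at least one test.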

The filed quantity is “Percent Effect” (%).
How 0% and 100% were set is not recorded. Most values in the screen are low, and negative values occur.
The compounds are a random part of those screened.

| structure | Percent Effect |
|---|---|
| `OC1COCCN(Cc2cc(-c3ccccc3OC(F)(F)F)no2)C1` (configuration not stated) | -21.42% |
| `O=C(CN1CCC(c2ccnn2CCO)CC1)NCC1CC1` | 12.28% |
| `COc1ccc(CC(=O)N2CCN(Cc3ccco3)C[C@H]2C)cc1OC` | 14.12% |
| `Cc1cc(C(F)(F)F)nc(C2(C)CCCN2CC(N)=O)n1` (configuration not stated) | -15.57% |
| `Cl.O=C(NC[C@@]1(COc2cnccn2)C[C@@H](O)[C@@H](O)C1)C1CCOCC1` | 9.654% |
| `CCn1nc2c(cc1=O)CN(CCOc1ccccc1C#N)CC2` | 21.06% |
| `OC1CCN(c2ccnc(NCCc3ccccc3Cl)n2)CC1` | 0.5326% |
| `CNc1nc(C)cc(N2CCC(C(=O)O)(n3ccc(C(C)C)n3)CC2)n1` | -3.017% |
| `CCN(CCO)C[C@@H]1CN(C(=O)c2ccc(C)s2)C[C@@H]1CO` | -57.32% |
| `Cc1cc(NCc2nnc3n2CCC3)n2nc(C)c(C)c2n1` | -35.43% |
| `O=C(O)CCc1cccc(C2CCCN2Cc2ccc(F)c(F)c2)n1` (configuration not stated) | 8.071% |
| `CCc1ccc(S(=O)(=O)N2CCCC(c3ncc[nH]3)C2)s1` (configuration not stated) | -10.33% |
| `CC(C)(C)OC(=O)N1CSC[C@@H]1C(=O)NCc1ccc(C#N)cc1` | 9.366% |
| `CC(C)c1noc(C(C)N2CCN(Cc3nc4ccccc4[nH]3)CC2)n1` (configuration not stated) | 12.17% |
| `CN(C)c1ncccc1CNC(=O)c1csc(Br)c1` | -20.52% |
| `Cn1ncc2c(NCCOc3ccc(F)cc3)nc(C3CCCC3)nc21` | 105.9% |
| `Clc1ccc(CNc2ccc(Cl)cn2)cc1` | -25.47% |
| `Cc1ccc(C(=O)NC2CCN(Cc3noc(CC(C)C)n3)CC2)s1` | -1.103% |
| `COCCCNC(=O)NCc1ccc(N2CCOC(C)C2)nc1` (configuration not stated) | -9.003% |
| `CC(C)NC(=O)Cn1cc(-c2ccccc2)ncc1=O` | 22.46% |
| `CC(C)n1cnc(-c2nc(C(=O)NC3CC3)c3ccccn23)c1` | -1.844% |
| `O=C(NCc1cnc2n1CCN(CC1CC1)CC2)C1CCC1` | 7.061% |
| `CN(C)CCOCc1cncc2c1CCN(C1CCOCC1)C2.O=C(O)C(F)(F)F.O=C(O)C(F)(F)F.O=C(O)C(F)(F)F` | -7.518% |
| `CN(C)c1cc(C2CCCN(Cc3cnn(C)c3)C2)ccn1` (configuration not stated) | 0.4468% |
| `Cc1cc(CN(C)S(=O)(=O)N2CCCC2c2ccc(C)o2)no1` (configuration not stated) | -5.736% |
| `CCNC(=O)[C@@H]1C[C@H](NC(=O)c2ccc(C)s2)CN1Cc1ccc(C)o1` | 4.934% |
| `O=C(O)c1cccc(CN2CCC(c3ccnc4ccnn34)CC2)c1` | 2.897% |
| `CC(C)C(=O)NCCc1nc(-c2ccncc2)n[nH]1` | 40.2% |
| `O=C(O)C(F)(F)F.O=C(O)C(F)(F)F.[H][C@]12C[C@@H](CN3CCCC3)N(C)[C@@]1([H])CCN(C(=O)c1occc1C)C2` | 5.272% |
| `CC(C)N1CCC2(C=C(C(=O)NC3CC3)c3ccccc32)CC1.O=C(O)C(F)(F)F` | 0.2444% |
| `CNC(=O)c1cccc(CN2CCC(N(C)Cc3noc(C)n3)C2)c1` (configuration not stated) | -28.62% |
| `[H][C@@]12CCCO[C@]1([H])[C@H](N(C)Cc1ccco1)CN(C(=O)c1ccoc1C)C2` | 1.565% |
| `COCc1c(C(=O)N2CCCC(N(C)Cc3ccccc3)C2)noc1C` (configuration not stated) | 31.13% |
| `COc1ccc(CN2CC[C@H](c3nc4cccc(C(N)=O)c4[nH]3)C2)cc1` | 3.297% |
| `CCNC(=O)[C@@H]1C[C@@H](N)CN1C(=O)C1(c2ccc(OC)cc2)CCCC1` | 19.92% |
| `Cc1cc(C)nc(Nc2cccc(C3CCCN(S(C)(=O)=O)C3)n2)n1` (configuration not stated) | -57.14% |
| `CC(C)CC(=O)NC[C@H]1CC[C@H](C(c2ccccn2)N(C)C)CC1` (some centres not stated) | 20.81% |
| `COc1c(F)cccc1C(=O)N(C)Cc1nc(-c2ccccn2)no1` | 8.795% |
| `NC(=O)c1cc(CC2CCCN(c3cnccn3)C2)ncn1` (configuration not stated) | 10.54% |
| `COc1cccc(CN(C)C(=O)Nc2ccc3c(c2)OCCO3)c1` | -7.003% |
| `CCc1nnsc1C(=O)N1CCOC(c2nc(C(C)C)n[nH]2)C1` (configuration not stated) | 20.25% |
| `Cn1c(CS(=O)(=O)c2ccc(Cl)cc2)cc(=O)n(C)c1=O` | 7.477% |
| `Cc1nnc(C(C)N(C)Cc2c(C)nn(-c3ccccc3)c2C)o1` (configuration not stated) | 24.27% |
| `Cc1noc(CNC(=O)CN(C)c2nc3ccccc3s2)n1` | 45.58% |
| `Cc1nc(COc2ccc(OCC(N)=O)cc2)oc1C` | 8.717% |
| `Cc1ccc(C(=O)N2CCc3c(CNc4ncccn4)cncc3C2)o1.Cl` | -49.69% |
| `Cc1nc(CN2CCC(N(C)Cc3noc(C(C)C)n3)C2)oc1C` (configuration not stated) | 11.77% |
| `CN1C(=O)CC(c2ccccc2)C12CCN(c1ncc(F)cn1)CC2` (configuration not stated) | 14.82% |
| `COCc1ccccc1C(=O)NS(=O)(=O)CCCC#N` | -4.042% |
| `[H][C@]12CCN(S(=O)(=O)c3cccc(C)c3)[C@@]1([H])CC[C@@H](COC)O2` | 6.24% |
| `CC(C)N(C)Cc1ncn2c1CN(S(=O)(=O)c1cccs1)CCC2.O=C(O)C(F)(F)F` | -0.34% |
| `CC(C)c1nn(C)c(N(C)C)c1CNC(C)c1ccc2c(c1)OCO2.Cl` (configuration not stated) | 0.4226% |
| `O=C(O)C(F)(F)F.O=C(O)C(F)(F)F.[H][C@@]12CCCO[C@]1([H])[C@H](NC(=O)c1cccnc1)CN(c1ncccn1)C2` | -2.963% |
| `CCN1CC(C(=O)NCc2nc(C3CCCCC3)no2)CC1=O` (configuration not stated) | -25.14% |
| `O=C(O)C(F)(F)F.[H][C@@]12CCN(Cc3ccccc3)[C@@]1([H])CC(=O)N2CCOC` | 2.795% |
| `[H][C@]12CC[C@]([H])(CN(Cc3cc(=O)[nH]c(=O)[nH]3)C1)N(CC=C(C)C)C2` | 29.56% |
| `CC(C)CNC(=O)C1(Cc2ccccc2-c2cccs2)CCNC1` (configuration not stated) | -29.4% |
| `COc1cccc2c1OCCCN(Cc1c[nH]nc1C(=O)O)C2` | -14.58% |
| `COc1ccccc1C(=O)Nc1c(F)c(C(=O)NC2CCCC2)nn1C` | 10.18% |
| `Cc1cc(C)n(-c2cncc(N3CCN(C(=O)C(C)(C)C)CC3)n2)n1` | 30.39% |
| `CN(C)Cc1nnc(C2CCN(c3ncccc3Cl)CC2)n1C1CC1` | -0.4791% |
| `O=C(NCc1cnc2n1CCN(Cc1ccsc1)CC2)C1CCC1.O=C(O)C(F)(F)F` | 28.85% |

From ChEMBL document CHEMBL3988442, “University of Dundee, Small-Polar-MMV Screening Library” (2021).